Measurements taken from PubChem BioAssay AID1794844 (National Center for Advancing Translational Sciences (NCATS), 2023).
Out of some 2,800 compounds screened, fewer than 10 were called active. Not shown: some 7% with an inconclusive outcome. The call rests on the fitted dose curve; in most records, active means well fitted inhibition curve with a large enough effect; inconclusive means small, poorly fitted or top-dose-only effect; inactive means no such curve, though single readings can be large or run the other way. The list shows a part of the results.

Sequences of proteins named here, by UniProt entry; tags and fusion partners are left off. A change or cut given only in a name is not applied to a line headed by its entry.
UniProt C7C422: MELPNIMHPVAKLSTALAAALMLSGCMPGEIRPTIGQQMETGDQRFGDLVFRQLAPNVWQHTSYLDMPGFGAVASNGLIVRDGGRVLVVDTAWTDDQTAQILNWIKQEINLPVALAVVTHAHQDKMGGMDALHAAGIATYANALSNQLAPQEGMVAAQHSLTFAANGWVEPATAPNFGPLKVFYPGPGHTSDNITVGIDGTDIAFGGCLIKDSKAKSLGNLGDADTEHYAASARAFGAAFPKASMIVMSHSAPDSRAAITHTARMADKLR

target: Metallo-beta-lactamase type 2 (Klebsiella pneumoniae) (UniProt C7C422); experiment: qHTS to identify inhibitors of the New Delhi Metallo-beta-lactamase (NDM): Nitrocefin screen against the machine-based learning selections.; further: % of control where 0% means no effect; details: NDM-1 enzyme, nitrocefin hydrolysis, absorbance 485 nm; activity, negative = inhibition: at the top concentration
Summary of the method: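 Hydrolysis by 2 nM NDM-1 was followed by absorbance after >30 min compound preincubation in HEPES pH 7.0 buffer with 1 uM Zn2SO4. For nitrocefin (16.7 uM, 15 min, 485 nm) and meropenem (50 uM, 30 min, 300 nm), each substrate ran on separate plates.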

activity, negative = inhibition, inactive:
COc1cccc(-c2cc(C(=O)O)cc(S(=O)(=O)N3CCSCC3)c2)c1 -5.42%, COC(=O)c1cc2n(n1)CCN(C(=O)c1cccc3c1OCC3)C2 0.926%, CNC(=O)[C@@H](Cc1ccccc1)N1CCC[C@H]1C(=O)N1CCCCC1 1.51% [at 57.5 µM], CC1=C[C@@H](CNS(C)(=O)=O)[C@H](C(C)C)C[C@H]1Cc1nc2ccc(Cl)cc2[nH]1 0.4% [at 57.5 µM], CC(C)NC(=O)N[C@H]1CCN(C(=O)c2cnccn2)[C@@H]1C(=O)N[C@@H](Cc1cccs1)C(N)=O -2.8%, Cc1ccc(-n2nc3n(c2=O)CCN(C(=O)c2ccccc2C)C3)cc1 -10.6% [at 57.5 µM], Cc1ccccc1-c1[nH]nc2ncc(-c3cn[nH]c3)nc12 3.53% [at 76.7 µM], COCC(=O)N1CC2(Cc3ccccc3N(C(C)=O)C2)C1 -0.625% [at 57.5 µM], Cc1ccc(S(=O)(=O)NC[C@H]2OC[C@@H](NCC(C)(C)C)[C@@H]2O)cc1 -2.2% [at 57.5 µM], CC(=O)N[C@H]1C[C@@H](c2cnc3ccccc3c2)O[C@@H](C2CCCCC2)C1 -5.83%, Cn1ccc2c(C(=O)NCc3cccnc3)nc(-c3ccc(CO)cc3)cc21 1.42% [at 57.5 µM], CN1[C@@H](CCC(=O)N2CCc3ccccc32)CNC(=O)[C@@H]2[C@H]1CCN2Cc1ccc(O)cc1 -1.15%, COCC[C@]1(O)CCN(C(=O)c2cccc(OC)c2C)C[C@H]1C 2.2%, O=C(c1ccc(Cn2cnnn2)cc1)N1CCC2(CC1)[C@H](O)C[C@@H]2OCCO -2.43%, C[C@]1(O)CCN(C(=O)c2cnn3cc(CCO)cnc23)C[C@@H]1O -3.01%, O=C1NC(=O)C(c2ccc(-c3ccc4nc[nH]c(=O)c4c3)cc2)N1 (stereo unspecified) 0.866%, COc1ccc(C(=O)NCC2(COc3ccc(S(C)(=O)=O)cc3)C[C@@H](O)[C@@H](O)C2)cc1 (stereo partly specified) -6.11%, C#CCNC(=O)c1onc(-c2ccc(F)cc2)c1[C@H](C)O 11.6% [at 76.7 µM], N#Cc1cccc(CN2CC[C@H](c3nnc(-c4ccco4)o3)C2)c1 3.22% [at 57.5 µM], CCOc1ccc(C(=O)N2CCC3(CC2)N(C)C(=O)CS3(=O)=O)cc1 -4.48%, O=C1N[C@@H]2CCN(S(=O)(=O)c3ccccc3)[C@@H]2C(=O)N1c1ccc(F)cc1 -3.54% [at 57.5 µM], Cc1ccc(CN2CC[C@@H]3[C@H]2C(=O)NC[C@H](CCC(=O)N2CCCC2)N3C)cc1 -15.8% [at 57.5 µM], CC(C)(C)c1coc([C@@H]2COCCN2Cc2ccc(F)cc2)n1 -0.248% [at 57.5 µM], O=c1cc(-c2ccncc2)oc2c(-c3cccc(CO)c3)nccc12 1.14% [at 57.5 µM], CC1=C[C@@H](CO)[C@H](C(C)C)C[C@H]1Cc1nnc(C(C)(C)C)o1 11.1% [at 57.5 µM], O=C(Nc1cccc(F)c1)N1C[C@@H]2C[C@H](C1)c1c(-c3cc4ccccc4s3)ccc(=O)n1C2 -3.07%, COCCOc1ccnc(-c2noc([C@@H]3CCCN3CC3CC3)n2)c1 -5.18% [at 57.5 µM], O=C(N[C@@H]1CN(C(=O)Nc2ccccc2)CCC[C@H]1O)c1ccc(OCCN2CCOCC2)cc1 -6.03%, O=C(Cc1c[nH]c2ncc(-c3cccnc3)cc12)NCc1ccccc1 -5.99% [at 57.5 µM], Cc1ncc2n1C(=O)N(C1CCN(Cc3cccnc3)CC1)C2 -3.34% [at 57.5 µM], CC(C)c1ccc(N2C(=O)N[C@@H]3CCN(S(=O)(=O)c4cccs4)[C@@H]3C2=O)cc1 0.233% [at 57.5 µM], Cc1noc2nc3c(c(C(=O)N[C@H]4CC[C@H]4N)c12)CCC3 -7.9%, Cc1ccc([S+](=O)([O-])N2CCn3c(nnc3-c3ccccc3)C2)cc1 -6.74%, O=C(NCC1CN(Cc2ccncc2)CC12CN(c1ccccc1)C2)Nc1ccccc1 (stereo unspecified) -1.65% [at 57.5 µM], C[C@@H](Nc1ccc(-c2nc(CCCc3ccccc3)no2)cn1)C(N)=O -5.67%, O=C(Nc1ccc(F)cc1)N1CC[C@H]2COC(=O)N2c2cc(F)ccc2C1 0.112% [at 57.5 µM], CC(=O)c1cc(CC(=O)N2CCC3(CCCN(C(C)C)C3=O)C2)cs1 (stereo unspecified) 0.378%, COc1ccc2nc([C@H]3CCN(C4CCN(C(C)=O)CC4)C3)[nH]c2c1 3.67% [at 57.5 µM], O=c1[nH]c(N2CCOCC2)nc2c1CCN(Cc1ccc(C(F)(F)F)cc1)CC2 -0.254%, CC(=O)N1CCN(c2cc(-c3noc([C@@H]4CCCN4Cc4ccccc4C)n3)ccn2)CC1 -0.621%, O=C(NCCCn1ccnn1)[C@H]1CNC[C@@H](C(=O)N2CCCC2)C1 0.996%, Cc1ccc2oc(C(=O)N(C)Cc3nc(-c4cccnc4)no3)c(C)c2c1 -8.24%, Cc1csc(NC(=O)[C@@H]2CCC[C@@H](NCC3CC3)CN(C)C(=O)C2)n1 -7.47% [at 57.5 µM], O=C(Nc1cccnc1)c1ccnc(-c2nnc3ccc(N4CCOCC4)nn23)c1 -5.3% [at 57.5 µM], CN(CCc1nc2ccc(Cl)cc2[nH]1)c1cc(C2CC(O)C2)nc(N)n1 (stereo unspecified) 1.04%, OC(c1ccccc1)c1nc(Nc2ccc3c(c2)OCO3)n[nH]1 (stereo unspecified) -4.45% [at 57.5 µM], O=c1cc(-c2ccccn2)oc2c(-c3ccc(CO)cc3)nccc12 15.2% [at 57.5 µM], COCCNC(=O)Cc1c[nH]c2ncc(-c3ccccc3)cc12 3.23% [at 57.5 µM], CC(C)CN1CCC(c2nc3ccc(F)cc3c(=O)[nH]2)CC1 -1.85%, COc1ccccc1-c1nnc([C@H]2CCN(Cc3cccnc3)C2)o1 -0.956% [at 57.5 µM], COc1ccc(C(=O)NC[C@@H]2C=C(C)[C@H](Cc3nnc(-c4ccncc4)o3)C[C@H]2C(C)C)cc1 -2.25%, CN1CCOc2c(C(=O)NCCC(N)=O)cc(-c3ccccc3O)cc21 -0.0482% [at 57.5 µM], CN(Cc1ccccc1)Cc1cc(CC2(NCc3ccc(OC(F)(F)F)cc3)COC2)no1 -2.31%, COc1nc(C)c(C(=O)N2CCC(c3[nH]ncc3-c3ccccc3)CC2)s1 0.575%, CCCNC(=O)N(C1CCOCC1)C1CCN(C(=O)Nc2c(F)cccc2F)CC1 0.64%, CN(C)c1cccc(NC(=O)Cc2c[nH]c3ncc(-c4cccnc4)cc23)c1 2.98% [at 57.5 µM], CNC(=O)C1(N2CCC[C@H]2C(=O)N2CCCC2)COC1 11.1% [at 76.7 µM], Cc1noc(-c2cn(C3CCN(C(=O)c4ccccc4Cl)C3)nn2)n1 (stereo unspecified) -7.31%, COCCNC(=O)C[C@@H]1C[C@@H](C(C)C)[C@H](CNS(=O)(=O)c2ccc(OC)cc2)C=C1C 15.6%, CC(=O)N1CCN(C(=O)C[C@@H]2c3nc(NC(=O)C4CCCCC4)sc3C[C@@H]3[C@](C)(CO)[C@H](O)CC[C@]32C)CC1 1.19%, c1ccc(-c2cnc(Nc3ccncc3)c3c2CCO3)cc1 -9.68% [at 76.7 µM]
